Source: PubChem BioAssay AID1794844 (National Center for Advancing Translational Sciences (NCATS), 2023)
Hit rate of the full screen: of about 2,800 compounds, fewer than 10 were called active. About 7% were inconclusive and are not listed. Calls follow the shape of the dose curve; as a rule, active = well fitted inhibition curve with a large enough effect; inconclusive = small, poorly fitted or top-dose-only effect; inactive = no such curve, though single readings can be large or run the other way. The list shows a part of the results.

Sequences of proteins named here, by UniProt entry; tags and fusion partners are left off. A change or cut given only in a name is not applied to a line headed by its entry.
UniProt C7C422: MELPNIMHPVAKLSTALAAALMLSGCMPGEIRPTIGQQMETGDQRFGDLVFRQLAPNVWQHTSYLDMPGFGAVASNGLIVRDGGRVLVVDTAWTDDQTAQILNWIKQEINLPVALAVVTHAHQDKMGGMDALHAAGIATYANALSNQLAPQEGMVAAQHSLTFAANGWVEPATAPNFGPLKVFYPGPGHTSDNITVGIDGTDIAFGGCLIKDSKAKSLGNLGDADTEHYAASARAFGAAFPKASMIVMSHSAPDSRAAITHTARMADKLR

biological target: Metallo-beta-lactamase type 2 (Klebsiella pneumoniae) (UniProt C7C422); test: qHTS to identify inhibitors of the New Delhi Metallo-beta-lactamase (NDM): Nitrocefin screen against the machine-based learning selections.; also: % of control where 0% means no effect; settings: NDM-1 enzyme, nitrocefin hydrolysis, absorbance 485 nm; activity, negative = inhibition: at the top concentration
How it was run: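 Hydrolysis by 2 nM NDM-1 was followed by absorbance after >30 min compound preincubation in HEPES pH 7.0 buffer with 1 uM Zn2SO4. For nitrocefin (16.7 uM, 15 min, 485 nm) and meropenem (50 uM, 30 min, 300 nm), each substrate ran on separate plates.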

activity, negative = inhibition, inactive:
Cc1ccc(S(N)(=O)=O)cc1C(=O)N1CCC2(CCCNC2=O)C1 (stereo not drawn) 2.43%
Cn1cnnc1CC1CCN(C(=O)c2cn3ccsc3n2)CC1 -7.6%
Cc1ccc2c(c1)nc1n2[C@@H](CNC(C)C)COC1 -5.33% [at 76.7 µM]
O=C(NC[C@H]1O[C@@H](CC(=O)N2CCN(c3ccc(F)cc3)CC2)[C@H](O)[C@@H]1O)c1ccco1 -8.68%
Cc1noc(C)c1S(=O)(=O)N1CCCC(Cc2nncn2CC2CC2)C1 (stereo not drawn) -8.28%
O=C(N[C@@H]1CCN(Cc2ccc3nsnc3c2)C[C@H]1O)c1cnccn1 -1.34%
CCC[S+](=O)([O-])N1CCN(C(=O)N2CC3CC(C2)[C@H]2CCCC(=O)N2C3)CC1 (stereo partly drawn) 0.734%
COc1ccc(C(=O)N[C@@H]2CN(C(=O)NC3CCCCC3)CCC[C@H]2O)cc1 -1.49% [at 57.5 µM]
COC(=O)c1ccc2nc(C[C@@H]3C[C@@H](C(C)C)[C@H](CNC4CCOCC4)C=C3C)[nH]c2c1 6.01%
Cn1cncc1-c1nnc([C@H]2CCN(C(=O)c3ccncc3)C2)o1 -1.38% [at 57.5 µM]
O=C(NCC1CCCO1)c1ccnc(-c2nnc3ccc(Nc4ccccc4)nn23)c1 (stereo not drawn) -2.52% [at 57.5 µM]
O=C(c1[nH]nc2c1COc1ccccc1-2)N1CCCC(Cc2nc(C3CCOCC3)no2)C1 (stereo not drawn) 2.44%
Oc1ccccc1CN1CCNc2cnc(Nc3ccccc3)cc2C1 -4.55% [at 57.5 µM]
Cc1ccccc1-c1[nH]nc2ncc(-c3ccsc3)nc12 15.8% [at 76.7 µM]
Cc1ccccc1C(=O)Nc1ccc([C@H]2OCC(=O)N(C)[C@@H]2CO)cc1 -0.0308% [at 57.5 µM]
CCOc1ncccc1C(=O)N1CCc2[nH]nc(-c3cccc(F)c3)c2C1 -4.41%
CCCC(C)N1CC2(CCN(C(=O)c3cc(Cl)ccc3C)CC2)OC1=O (stereo not drawn) 7.19%
O=C(c1csc(Cc2ccccc2)n1)N1CCC2(CCNCC2)CC1 -12.8%
N#Cc1cccc(CN2CC[C@H](c3nc4ccccc4[nH]3)C2)c1 1.73% [at 57.5 µM]
CN(Cc1ccsc1)C(=O)c1ccc(C#CC(C)(C)O)o1 3.12%
FC(F)(F)c1ccnc(-c2cc(NCc3ccccn3)nc3[nH]ccc23)c1 -6.4%
COC(=O)C1CCN(CC(O)COc2cccc(CN3CC=C(C)CC3)c2)CC1 (stereo not drawn) -5.12%
CC(C)c1cccc(-c2cc(NCc3ccccn3)nc3[nH]ccc23)n1 9.13%
Cc1nnc2n1C(C)CN(C(=O)CCc1nc(-c3ccncc3)no1)C2 (stereo not drawn) -5.72%
O=C1Nc2ccc(-c3ccccc3F)cc2C(=O)N2CC[C@H](NS(=O)(=O)c3cccs3)[C@@H]12 2.37%
COC(=O)[C@@H]1Cc2ncn(C)c2CN1C(=O)c1ccc(-c2ccccc2)cc1 -7.88% [at 57.5 µM]
CCn1cc(CN2CCc3ccccc3C2)ccc1=O -6.53%
O=C(Cc1c[nH]c2ncc(-c3ccc(Cl)cc3)cc12)NCc1cccnc1 5.86% [at 57.5 µM]
CC(=O)Nc1ccc(CN2CCN3C(=O)N(Cc4ccc(C)cc4)C[C@H]3C2)cc1 -0.792% [at 57.5 µM]
CCc1cc(=O)n(CC(=O)Nc2cc(OC)cc(OC)c2)c(N2CCOCC2)n1 9.73%
COc1cccc(N2CC(C(=O)NCC(F)(F)F)NC2=O)c1 (stereo not drawn) -2.9% [at 57.5 µM]
CC(=O)NC1(C)CCCN(Cc2cc(-c3cccc(C(F)(F)F)c3)cs2)C1 (stereo not drawn) 7.14% [at 57.5 µM]
O=C(NCCc1nccc(-c2ccccc2)n1)c1ccc2cccc(F)c2n1 -6.54%
OCCc1ccc(Nc2cnc3ccc(-c4ccc(F)cc4)nn23)cc1 -26.7% [at 57.5 µM]
CC(=O)c1ccc(NC(=O)O[C@@H]2CO[C@H]3[C@@H]2OC[C@@H]3NC(=O)c2ccco2)cc1 -2.97% [at 57.5 µM]
CCn1c(CO)nnc1C1CC(NC(=O)Cc2c[nH]c3ccccc23)C1 (stereo not drawn) -7.51%
CNc1ncccc1C(=O)N1CC[C@@H](c2ccc3c(c2)OCO3)[C@H](O)C1 -1.7%
CCOC(=O)C1CCN(Cc2ccccc2OCC(O)CN(C)C2CCCCC2)CC1 (stereo not drawn) 2.36%
c1ccc2sc([C@H]3CCN(C4CCC4)C3)nc2c1 0.891% [at 76.7 µM]
CC(=O)Nc1cccc(-c2ccc3ncn(Cc4ccccn4)c(=O)c3n2)c1 -7.79% [at 57.5 µM]
COc1cc2c(cc1CN1CCCC(O)(CN(C)C)C1)OCCCO2 (stereo not drawn) 5.15%
COc1ccccc1C(O)c1nc(Nc2ccc(Cl)cc2)n[nH]1 (stereo not drawn) 3.08% [at 57.5 µM]
NC(=O)[C@H](Cc1cccs1)NC(=O)C1=C[C@@H](NC(=O)NC2CCCCC2)[C@@H](O)[C@H](O)C1 -3.43%
C=CCC1(CO)CCCN(CCOc2ccc(C)cc2Cl)C1 (stereo not drawn) 5.8%
C=CCC1(CO)CCCN(CC(=O)NCCc2ccc(Cl)cc2)C1 (stereo not drawn) 0.599%
CNC(=O)Cn1nc(C(=O)N2CCCC(CO)(CC3CC3)C2)cc1C (stereo not drawn) 7.56%
COc1ccc(-c2nc(C(C)C)nc3c2CCN(C(=O)C2CCCC2)CC3)cc1 4.96%
CN(C)c1nccnc1OC1CCN(C(=O)CCCc2ccccc2)C1 (stereo not drawn) 2.8%
O=C(N[C@H]1CCN2C(=O)c3cc(-c4cccc(C(F)(F)F)c4)ccc3NC(=O)[C@@H]2C1)c1ccncc1 -5.53%
NC(=O)Cc1c[nH]c2ncc(-c3ccc(F)cc3)cc12 31.9% [at 76.7 µM]
COC[C@H]1C[C@@H](NS(C)(=O)=O)[C@H](O)[C@@H]1O -5.51% [at 76.7 µM]
FC(F)(F)c1ccc(N2CCC(N[C@@H]3C[C@@H]4OCC[C@@H]43)CC2)nc1 -13.7%
O=C(NC[C@H]1OC[C@@H](NCc2ccccc2)[C@@H]1O)c1ccccc1 -3.95% [at 57.5 µM]
O=C(c1ccc(CNc2nccc(-c3cccnc3)n2)cc1)N1CCCCC1 -3.79%
COc1ccc(CC(=O)Nc2ccc([C@H]3OCC(=O)N(Cc4scnc4C)[C@@H]3CO)cc2)cc1 -6.82%
O=C(O)C[C@@H]1CCN(S(=O)(=O)c2ccccc2)C[C@@H]1CCN(CCN1CCOCC1)c1ccccc1 -10.4%
CCNC(=O)O[C@@H]1CO[C@H]2[C@@H]1OC[C@@H]2NC(=O)c1ccccn1 27.2% [at 57.5 µM]
CC1=C[C@@H](CNC2CCOCC2)[C@H](C(C)C)C[C@H]1Cc1nc2ccc(Cl)cc2[nH]1 4.72% [at 57.5 µM]
COCCNc1cc(-c2noc([C@@H]3CCCN3Cc3ccccn3)n2)ccn1 4.64% [at 57.5 µM]
COCC1(CNCc2ccc(F)cc2)C[C@@H](O)[C@@H](O)C1 (stereo partly drawn) -7.25% [at 76.7 µM]
COc1ccc(C(=O)Nc2ccc([C@H]3OCC(=O)N(Cc4cccnc4)[C@@H]3CO)cc2)cc1 1.83%
COCc1cn([C@H]2CO[C@H]3[C@@H]2OC[C@H]3OC(=O)Nc2cccc(C(F)(F)F)c2)nn1 11.4% [at 57.5 µM]
O=C(O)C[C@@H]1CCN(C(=O)c2cccs2)C[C@@H]1CCN1CCN(c2cccc(C(F)(F)F)c2)CC1 -12.2%
CCn1ccc(C(=O)N2CCCC(c3nn(C)c(=O)n3-c3ccccc3)C2)n1 (stereo not drawn) 8.71%
NC(=O)Cc1c[nH]c2ncc(-c3cccc(N4CCOCC4)c3)cc12 -5.99% [at 57.5 µM]
C=CCc1cc(C2CC(=O)Nc3[nH]ncc32)cc(OCC)c1OC (stereo not drawn) -0.216%
O=C(Nc1ccccc1)c1cnc2c(c1)N(C(=O)Cc1ccc(O)cc1)CCC2 -7.38% [at 57.5 µM]
O=C(Cc1c[nH]c2ncc(-c3ccccc3)cc12)NCc1ccncc1 12.5% [at 57.5 µM]
O=C(N[C@H]1CCN2C(=O)c3cc(-c4ccsc4)ccc3NC(=O)[C@H]12)c1cccc(F)c1 -12.2%
COc1ccc(OC)c(S(=O)(=O)N2C[C@@H](F)C[C@H]2C(=O)N2CCc3ccccc3C2)c1 -4.55%
CSc1cccc(NC(=O)N(C)CC2CCOCC2)c1 0.601%
CCOc1cc(=O)n2c(c1C(=O)N1CCN(c3ccc(F)cc3)CC1)CCCC2 3.65%
COCCNc1ncc(-c2cccc(N[S+](C)(=O)[O-])c2)c2c1OCC2 3.64% [at 57.5 µM]
COC[C@H]1CCCN1Cc1nc(C2(O)CCN(C3CCC3)CC2)cs1 -3.4% [at 57.5 µM]
CC[C@H]1CN(C(=O)Nc2cccc(C(F)(F)F)c2)CC[C@H]1CC(=O)Nc1ccccc1 6.38% [at 57.5 µM]
COc1ccc(-c2cnc3[nH]cc(CC(=O)Nc4cccnc4)c3c2)cc1 28.1% [at 57.5 µM]
Oc1ccccc1CN1CCC(O)(c2csc(CN3CCc4ccccc4C3)n2)CC1 0.811%
Cc1cc(F)ccc1OC1CN(Cc2ccc(F)cc2)C1 -4.35% [at 57.5 µM]
Cc1c(C(=O)N2CCCn3nc(C(C)O)cc3C2)sc2nc[nH]c(=O)c12 (stereo not drawn) -5.04%
CC(=O)N1CCC(N2CCOC[C@H]2c2ncc(-c3ccncc3)[nH]2)CC1 -1.2% [at 57.5 µM]
O=C1NCC(c2ccc(Cl)cc2)Cc2[nH]c(-c3ccc(O)cc3)nc21 (stereo not drawn) 0.0693%
O=C(O)c1ccccc1C(=O)N[C@H]1CO[C@H]2[C@@H]1OC[C@@H]2n1nnnc1-c1ccc2c(c1)OCO2 0.0904%
c1ccc(-c2nnc3ccc(NC4CCC4)nn23)nc1 2.76% [at 76.7 µM]
O=C(O)C1(CCc2ccccc2)CCCN(c2ncnc3nc[nH]c23)C1 (stereo not drawn) -19.3%
O=C(NCCc1ccccn1)C1CCCN(c2nc(-c3ccccc3)nc3c2CCC3)C1 (stereo not drawn) 5.53%
COc1ccc(CN2CCOc3ccc(C(=O)NCc4ccc(C)cc4)cc3C2)c(OC)c1 -0.698%
COc1ccc(NC(=O)N[C@H]2CO[C@H]3[C@@H]2OC[C@H]3OC(=O)Nc2ccc(OC)cc2)cc1 54.1%
COc1ccc(CC2(CO)CCN(c3nccc(N)n3)CC2)cc1 -0.629%
C=CCC(=O)N1CCCC1C(=O)Nc1ccc(-c2cccc(OC)c2)cc1 (stereo not drawn) 0.991%
N#Cc1cccc(CN2CCC(C3=NC(O)c4cc(F)ccc4N3)CC2)c1 (stereo not drawn) 7.06%
NC(=O)Cc1c[nH]c2ncc(-c3ccccc3Oc3ccccc3)cc12 -0.38% [at 57.5 µM]
CCNC(=O)[C@@H]1C[C@H](NC(=O)c2ccccc2)CN1Cc1scnc1C -0.216%
Cc1ccc(S(=O)(=O)N2C[C@@H](C(N)=O)[C@H](C3CCN(C)CC3)C2)cc1Cl -2.75%
CC(C)Oc1ccc(C(=O)N2CCC3(CC2)C(=O)N(C)c2ccccc23)cc1 -6.69%
c1ccc(-c2nnc3ccc(NCc4cccs4)nn23)nc1 7.53% [at 57.5 µM]
OCC1CN(c2ccncn2)CC12CCN(Cc1c[nH]c3ccccc13)CC2 (stereo not drawn) 2.83%
COc1ccccc1Nc1ncc2c(n1)CN(C(=O)c1cccc(O)c1)CCN2 -3.99% [at 57.5 µM]
CC(NC(=O)OCc1ccccc1)c1nc2cccnc2n1C1CCCCC1 (stereo not drawn) -3.68%

Reprinted at random: five records from the list.
activity, negative = inhibition, inactive:
COC(=O)c1ccc2nc(C[C@@H]3C[C@@H](C(C)C)[C@H](CNC4CCOCC4)C=C3C)[nH]c2c1 6.01%
CC(=O)Nc1ccc(CN2CCN3C(=O)N(Cc4ccc(C)cc4)C[C@H]3C2)cc1 -0.792% [at 57.5 µM]
COc1ccc(NC(=O)N[C@H]2CO[C@H]3[C@@H]2OC[C@H]3OC(=O)Nc2ccc(OC)cc2)cc1 54.1%
C=CCC1(CO)CCCN(CC(=O)NCCc2ccc(Cl)cc2)C1 (stereo not drawn) 0.599%
COc1ccc(OC)c(S(=O)(=O)N2C[C@@H](F)C[C@H]2C(=O)N2CCc3ccccc3C2)c1 -4.55%
